Source: US20250346938A1, “ATP-DEPENDENT C-TERMINAL MODIFICATION OF POLYPEPTIDES” (Wisconsin Alumni Research Foundation, priority 2024, published 2025)
For some assays here: At least one structure is not confirmed: it was looked up by name or label, or the drawing left a doubt. Some of these results come from one statement about several compounds together.

Columns and labels:
M ccB = assay: Screening nucleophiles for MccB-mediated modification of MccA-N7G (LC-TOF MS); assay type: biochemical, E. coli; settings: HPLC-MS
Experimental: Screening nucleophiles for MccB-mediated ligation of synthetic peptide substrates. Nucleophile were dissolved in water and adjusted to neutral pH using paper pH strips (EM D Millipore). Solutions were stored at −80° C. until further use, unless otherwise noted. M ccA-N7G (250 μM) was incubated with 5 μM MccB, 5 mM ATP, and the corresponding concentration of nucleophile in reaction buffer (25 mM Tris pH 8.0, 10 mM M gCl2). Reactions were incubated for 16 hours at room temperature and quenched with addition of an equivalent volume of 0.6% TFA. […] Extracted ion chromatogram (EIC) peak areas were calculated using Agilent TOF Quantitative Analysis v11.0. Percent conversion of substrate to nucleophile-modified product was calculated using the integrated peak areas from the substrate peptide EIC and production EIC using the formula shown below.

HsM ccB = assay: H. somni MccB-catalyzed peptide thioester synthesis; assay type: biochemical; settings: Mesna as thiol donor
Experimental: Reactions were incubated for 16 hours at room temperature and quenched with addition of an equivalent volume of 0.6% TFA. […] To screen the ability of H. somni M ccB to catalyze thioesterification of HsLACE peptides, reactions contained M ccB ([…]), ATP (5 mM), M gCl2 (5 mM), peptide substrate (0.25 mM), 25 mM M esna or AcCysNHM e, and reaction buffer (100 mM HEPES, pH 8.0).
H. somni M ccB-catalyzed peptide thioester synthesis. For screening the activity of HsM ccB on HsTeCH, HsLACE1-4, and LACE substrate peptide, […] reactions were prepared that contained 100 mM HEPES, pH 8.0, HsM ccB ([…]), HsTeCH, HsLACE1-4, or LACE peptide ([…]), ATP (5 mM), M gCl2 (5 mM), and thiol (M esna or AcCysNHMe, 25 mM). Reactions were initiated by addition of HsM ccB and incubated for 16-20 h at room temperature. Raw data are available in the Dryad repository at DOI: 10.5061/dryad.c59zw3rkb.

Row | Compound | capture of O-AMPylated intermediate / modification of MccA-N7G C terminus by nucleophile (M ccB) | thioesterification (HsM ccB)
1 | NN [hydrazine, hydrazine monohydrate] | efficient capture | 
2 | MLGLRGG (listed as Histophilus somni) [HsLACE3] |  | > 99%
3 | MRGLRGG (listed as Histophilus somni) [HsLACE2] |  | > 99%
4 | MRGRRGG (listed as Histophilus somni) [HsLACE1] |  | > 99%
5 | MRGRRLG [HsM ccA-N 7G] |  | > 99%
